# Results from one PubChem assay

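Luminescence from an EWS-FLI1 target-promoter (NR0B1) reporter, set against a CMV-promoter reporter, two days after silencing single genes in TC32 Ewing sarcoma cells.
Each siRNA was applied at 20 nM.
A z-score of the log NR0B1-over-CMV signal, less the median of siRNAs with the same seed; more negative means a stronger specific loss of the NR0B1 reporter.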

The strongest results of the screen are mostly left out here.
Sequences are the guide (antisense) strand, without overhang.

siRNA,gene,seed-corrected z-score
CAUCGGGCCAUUGUACACG,LOC642515,0.01814
UUUAGGAAGAAGAUCAGUC,SULT1B1,0.1194
UCAGGGAACCACUUGAUGA,RHOF,0.06138
UGUUGUACCUGGGAAGAGG,BMP8A,0.1571
AUAGGAACUCAGACAGUUC,TMEM132A,0.4116
UUCUCUGCGCUGACUCUCC,C18orf42,-1.526
UUCGUUUCAAAAGGAAGGA,MIEF2,0.0904
UCUGGAUCUAUUGAAACAU,LIMD2,-0.8748
UCACGAAUAAUGAUUCAUC,AOX1,-0.5733
AAUUGAUCAAUGGUUCUGC,C14orf166,0.3753
UUUGCAGCCGCUACUCUCC,PHLDA1,-0.06834
UUUCUAGUUUGGAAAGAGC,KCNT1,0.04139
UGGGUAAACACCCUCAUCU,RTP3,-1.009
UUCAUUCCAGGUGCGGUCG,PLA2G4D,-0.08681
UCUAAGAAAUCCUCUAUCU,RPS9,2.075
UAUUCCCAUACAUAUCUGG,POTEA,-0.019
UAUCGUUCCAACUCGACUG,CMYA5,0.2162
AUUACUACAGGUCUUGUCC,ITGA4,0.07784
AAAUAAAACAGCACUGUCA,P4HTM,0.3143
AGGAUAACCAACAAUAUUG,DMGDH,-0.3291
UUAGUGUAAAAGCCCAGUG,GIMAP8,-0.5761
UCUGGAGCUAUCUUCAUGA,SFTPC,0.5061
UUCGUGGUCACUACUCGCA,TCEB3C,-0.4851
UUUGGUUGGAUGAAAUAUC,KDM4D,-0.2154
UGCGUAAUAAGUUUGGAAC,ZNF544,0.1553
AACGGAUUCACGUUCACGC,UBR5,-0.6243
ACAGCAAUGUGUGGGACGG,TMEM52,0.1817
UCCUGAUCAAAUACCACUC,ACO1,0.234
UAUAUAGACACGGCAGUAC,ADRA1B,-0.7611
UCCGGUGACAGUUGGACUC,HGFAC,-1.15
AAGUUGCUCAUUCUUCUCC,ADAM19,-0.8679
UUUGUUGCCUCUCCAAUUC,LMO7,-0.4308
UUAGGUCUUGUAACUCACU,SLC22A5,-0.4931
UAAGGUCUUCUAGUUCCCG,COPS7B,-0.3545
UUGUAGAUCCGAGCAAUCU,UBE2D2,-0.5167
UUCUCGAAGAGAUGGGUUC,ANKRD40,-0.392
AAAAGUGUUCCCUCCAUUC,ZNF562,0.8158
UAAUUGUAUUGCUUGAUGG,CDKN3,-0.3842
UCAGUGCCCACGGUAAGGA,HMOX1,-1.18
AAUUAUAAUAAGUGGACCG,VRTN,-0.3702
UACCCGCACAGAUUCCUUG,FBRS,-0.2128
UCAUGUAGUCCUUUGGCAG,LOC642515,-0.2408

The last 5 entries again:

siRNA	gene	seed-corrected z-score
UAAUUGUAUUGCUUGAUGG	CDKN3	-0.3842
UCAGUGCCCACGGUAAGGA	HMOX1	-1.18
AAUUAUAAUAAGUGGACCG	VRTN	-0.3702
UACCCGCACAGAUUCCUUG	FBRS	-0.2128
UCAUGUAGUCCUUUGGCAG	LOC642515	-0.2408

Data taken from PubChem BioAssay AID1159506, deposited by NCATS (2015).